PubChem BioAssay AID248 (DTP/NCI, 2004)
The list is a part of this screen's results and no random one: it gathers some chemical classes. Not every dose and run of a compound is shown. T/C is the treated group as % of the vehicle group. Some doses have a count of surviving animals in place of a T/C: the source holds a T/C of zero for them, seemingly a mark for toxic or unscored doses. Some survivor counts are full or nearly so, which does not show that the dose was tolerated: survival well below the control is almost never listed, so the zero probably covers shortened survival too. Counts of survivors are from the toxicity check (mostly the fifth day) where no day follows; animals may have died later. Schedule codes are those of the source, read here as Q, the interval in days (D) or hours (H), X, the number of doses. Where survival is the endpoint, this PubChem deposit counts one and a half times the control or more as active, and values a quarter to a half above the control carry no call in these data; other NCI protocols may use other cut-offs. Some T/C values are marked as having no survivor count here; that says nothing about deaths at the dose. Some entries hold several experiments; their values stand side by side, smallest first.

Tested on: L1210 leukemia ip in BDF1 mice, survival T/C
Test: NCI In Vivo Anticancer Drug Screen. Data for tumor model L1210 Leukemia (intraperitoneal) in B6D2F1 (BDF1) mice
Settings: T/C endpoint: mean survival time, higher T/C = longer survival

`O=C(O)c1ccccc1C(=O)c1ccc2ccccc2c1.O=C1c2cc([N+](=O)[O-])ccc2-c2c1cc([N+](=O)[O-])cc2[N+](=O)[O-]` was tested, and the T/C (dose: 100.0 mg/kg/injection, schedule: Q01DX001 (ip), vehicle: Klucel (hydroxypropylcellulose) (HPC)) was 106 % of control, the T/C (dose: 200.0 mg/kg/injection, schedule: Q01DX001 (ip), vehicle: Klucel (hydroxypropylcellulose) (HPC)) was 106 % of control and the T/C (dose: 400.0 mg/kg/injection, schedule: Q01DX001 (ip), vehicle: Klucel (hydroxypropylcellulose) (HPC)) was 115 % of control.

With `N#CSc1ccc([N+](=O)[O-])cc1[N+](=O)[O-]` the T/C (dose: 100.0 mg/kg/injection, schedule: Q04DX003 (ip), vehicle: saline) was 95 % of control, the survivor count (dose: 200.0 mg/kg/injection, schedule: Q04DX003 (ip), vehicle: saline) was 5 of 6 and the T/C (dose: 400.0 mg/kg/injection, schedule: Q04DX003 (ip), vehicle: saline) was 95 % of control.

With `O=[N+]([O-])OCC1CO1` (configuration not stated) the T/C (dose: 12.5 mg/kg/injection, schedule: Q01DX009 (ip), vehicle: saline) was 95 % of control [survivor count not shown], the T/C (dose: 25.0 mg/kg/injection, schedule: Q01DX009 (ip), vehicle: saline) was 106 % of control [survivor count not shown] and the T/C (dose: 50.0 mg/kg/injection, schedule: Q01DX009 (ip), vehicle: saline) was 96 [survivor count not shown] and 123 % of control [survivor count not shown]. For the same compound, the T/C (dose: 100.0 mg/kg/injection, schedule: Q01DX009 (ip), vehicle: saline) was 90 [survivor count not shown] and 93 % of control [survivor count not shown] and the T/C (dose: 200.0 mg/kg/injection, schedule: Q01DX009 (ip), vehicle: saline) was 97 % of control [survivor count not shown].

In the case of `CCCC(NCCCl)C(=O)NCCCl` (configuration not stated), the T/C (dose: 100.0 mg/kg/injection, schedule: Q04DX002 (ip), vehicle: saline) is reported as 98 % of control, the T/C (dose: 200.0 mg/kg/injection, schedule: Q04DX002 (ip), vehicle: saline) is reported as 90 % of control and the T/C (dose: 400.0 mg/kg/injection, schedule: Q04DX002 (ip), vehicle: saline) is reported as 110 % of control.

`CN(C)CCCOC(=O)C(O)(Cc1ccccc1)c1cccc2c1OC(C)(C)C2` (configuration not stated) was tested, and the T/C (dose: 25.0 mg/kg/injection, schedule: Q04DX003 (ip), vehicle: Klucel (hydroxypropylcellulose) (HPC)) was 97 % of control, the T/C (dose: 50.0 mg/kg/injection, schedule: Q01DX009 (ip), vehicle: Klucel (hydroxypropylcellulose) (HPC)) was 103 % of control and the T/C (dose: 50.0 mg/kg/injection, schedule: Q04DX003 (ip), vehicle: Klucel (hydroxypropylcellulose) (HPC)) was 103 % of control. The T/C (dose: 100.0 mg/kg/injection, schedule: Q01DX009 (ip), vehicle: Klucel (hydroxypropylcellulose) (HPC)) was 103 % of control, the T/C (dose: 100.0 mg/kg/injection, schedule: Q04DX003 (ip), vehicle: Klucel (hydroxypropylcellulose) (HPC), evaluated on day 20) was 95 % of control and the T/C (dose: 100.0 mg/kg/injection, schedule: Q04DX003 (ip), vehicle: Klucel (hydroxypropylcellulose) (HPC), evaluated on day 30) was 95 % of control.

`NC(=O)c1[nH]cnc1/N=N/N(CCCl)CCCl.[Cl][Cu][Cl]` was tested, and the T/C (dose: 9.5 mg/kg/injection, schedule: Q01DX001 (ip), vehicle: saline) was 120 % of control, the T/C (dose: 19.0 mg/kg/injection, schedule: Q01DX001 (ip), vehicle: saline) was 100 % of control and the T/C (dose: 38.0 mg/kg/injection, schedule: Q01DX001 (ip), vehicle: saline) was 103 % of control. The survivor count (dose: 75.0 mg/kg/injection, schedule: Q01DX001 (ip), vehicle: saline) was 0 of 6, the survivor count (dose: 150.0 mg/kg/injection, schedule: Q01DX001 (ip), vehicle: saline) was 0 of 6 and the survivor count (dose: 300.0 mg/kg/injection, schedule: Q01DX001 (ip), vehicle: saline) was 0 of 6.

For `O=C(Nc1ccccc1)N(CCCl)CCCl`, the T/C (dose: 100.0 mg/kg/injection, schedule: Q01DX009 (ip), vehicle: saline with Tween-80) was 96 % of control, the T/C (dose: 100.0 mg/kg/injection, schedule: Q04DX003 (ip), vehicle: saline with Tween-80) was 97 % of control and the T/C (dose: 200.0 mg/kg/injection, schedule: Q01DX009 (ip), vehicle: saline with Tween-80) was 98 % of control. For the same compound, the T/C (dose: 200.0 mg/kg/injection, schedule: Q04DX003 (ip), vehicle: saline with Tween-80) was 92 % of control, the survivor count (dose: 400.0 mg/kg/injection, schedule: Q01DX009 (ip), vehicle: saline with Tween-80) was 0 of 6 and the survivor count (dose: 400.0 mg/kg/injection, schedule: Q04DX003 (ip), vehicle: saline with Tween-80) was 1 of 6.
